The record followed here is patent US20240165208A1, “Mutant KRAS-Targeting Peptide and Use Thereof” (GJMEDI INC., priority 2020, published 2024).

Results are given in words; binding and its absence hold for the method and conditions named. Some entries that bind do so weakly or less than the wild type.

Assay [1] has as its target T1, KRAS G12V protein (UniProt P01116-2 1-188, limits assumed).
T1 construct: also called mutant KRAS G12V; mutant Kirsten-RAS
In words: ITC. For orientation: ITC needs no label: the signal is the heat of the interaction.

The target of assay [2] is T1, KRAS G12V protein. In words: summary of the examples.

B1: anticancer peptide GJ101 (peptide)
peptide: LYDVA
notes: Synthesised by solid phase peptide synthesis and purified by RP-HPLC to 95% or more; said to consist of 5 amino acids and to be derived from H-REV107; also called mutant KRAS-targeting anticancer peptide
With B1, the binding result in assay [1] and in assay [2] was “binds” each time.
